What all share (experiment): affinity purification with mass spectrometry
The target of experiment [1] is RIOK2 (right open reading frame kinase 2), endogenous (human (endogenous in U87MG-EGFRvIII, GBM301, GBM39, hNPCs)) (UniProt Q9BVS4).
The target of experiment [2] is FLAG-tagged wild-type RIOK2 (RIOK2^WT-FLAG) (human) (UniProt Q9BVS4).
For experiment [3], the target named is RIOK2 (right open reading frame kinase 2), endogenous (human (endogenous in U87MG-EGFRvIII, GBM301, GBM39, hNPCs)) (UniProt Q9BVS4). The source holds these as a separate data set.
Experiment [4] addresses FLAG-tagged wild-type RIOK2 (RIOK2^WT-FLAG) (human) (UniProt Q9BVS4). This is another data set of the same source.

Chains of the proteins cited; added tags and fusions are not shown.
UniProt Q9BVS4: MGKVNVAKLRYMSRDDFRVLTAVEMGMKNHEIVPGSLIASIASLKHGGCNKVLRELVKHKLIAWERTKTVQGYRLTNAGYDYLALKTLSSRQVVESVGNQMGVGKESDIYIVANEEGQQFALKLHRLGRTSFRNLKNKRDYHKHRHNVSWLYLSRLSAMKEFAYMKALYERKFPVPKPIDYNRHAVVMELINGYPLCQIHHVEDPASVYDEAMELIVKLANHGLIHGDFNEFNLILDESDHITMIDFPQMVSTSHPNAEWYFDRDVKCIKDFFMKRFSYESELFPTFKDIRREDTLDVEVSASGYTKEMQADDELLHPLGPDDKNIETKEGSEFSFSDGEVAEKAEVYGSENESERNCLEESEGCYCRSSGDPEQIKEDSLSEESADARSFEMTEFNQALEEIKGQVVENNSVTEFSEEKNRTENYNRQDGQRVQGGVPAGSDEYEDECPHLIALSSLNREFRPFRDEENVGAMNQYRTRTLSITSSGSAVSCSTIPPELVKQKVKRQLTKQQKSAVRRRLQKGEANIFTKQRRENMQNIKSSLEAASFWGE
UniProt Q99700: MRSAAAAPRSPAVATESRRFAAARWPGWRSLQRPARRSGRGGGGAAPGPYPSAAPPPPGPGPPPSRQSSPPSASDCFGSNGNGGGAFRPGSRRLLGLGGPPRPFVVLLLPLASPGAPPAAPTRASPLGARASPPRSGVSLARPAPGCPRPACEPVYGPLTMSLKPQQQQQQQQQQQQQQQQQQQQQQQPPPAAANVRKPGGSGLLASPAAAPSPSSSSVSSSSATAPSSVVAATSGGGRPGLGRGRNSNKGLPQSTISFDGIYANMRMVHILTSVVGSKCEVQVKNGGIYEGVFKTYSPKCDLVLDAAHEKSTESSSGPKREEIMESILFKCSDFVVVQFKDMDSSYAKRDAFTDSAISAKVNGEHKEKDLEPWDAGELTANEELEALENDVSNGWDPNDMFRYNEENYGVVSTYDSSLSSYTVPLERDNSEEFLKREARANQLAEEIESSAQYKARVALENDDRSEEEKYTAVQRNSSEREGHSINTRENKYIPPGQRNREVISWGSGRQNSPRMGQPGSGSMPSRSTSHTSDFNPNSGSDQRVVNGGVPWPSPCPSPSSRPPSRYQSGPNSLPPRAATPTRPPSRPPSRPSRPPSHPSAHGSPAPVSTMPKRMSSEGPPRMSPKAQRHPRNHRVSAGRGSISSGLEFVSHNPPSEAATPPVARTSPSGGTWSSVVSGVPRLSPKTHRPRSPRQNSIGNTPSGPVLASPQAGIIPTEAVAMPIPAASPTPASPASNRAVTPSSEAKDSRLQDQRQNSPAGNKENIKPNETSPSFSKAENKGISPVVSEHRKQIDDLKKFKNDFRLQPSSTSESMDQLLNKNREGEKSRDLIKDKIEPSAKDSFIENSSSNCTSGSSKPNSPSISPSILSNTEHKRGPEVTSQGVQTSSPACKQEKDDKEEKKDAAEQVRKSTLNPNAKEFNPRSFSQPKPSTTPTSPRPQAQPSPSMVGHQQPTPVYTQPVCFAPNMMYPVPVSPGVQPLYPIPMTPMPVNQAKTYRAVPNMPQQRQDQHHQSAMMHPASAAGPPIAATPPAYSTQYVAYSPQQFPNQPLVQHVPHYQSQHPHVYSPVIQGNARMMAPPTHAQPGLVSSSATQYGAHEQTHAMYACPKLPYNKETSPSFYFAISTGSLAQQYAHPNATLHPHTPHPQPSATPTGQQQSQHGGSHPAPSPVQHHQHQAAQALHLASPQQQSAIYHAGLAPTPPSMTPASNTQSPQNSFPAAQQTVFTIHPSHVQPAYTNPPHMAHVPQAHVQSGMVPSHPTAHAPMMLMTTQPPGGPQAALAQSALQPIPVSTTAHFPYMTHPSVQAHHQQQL
UniProt Q13283: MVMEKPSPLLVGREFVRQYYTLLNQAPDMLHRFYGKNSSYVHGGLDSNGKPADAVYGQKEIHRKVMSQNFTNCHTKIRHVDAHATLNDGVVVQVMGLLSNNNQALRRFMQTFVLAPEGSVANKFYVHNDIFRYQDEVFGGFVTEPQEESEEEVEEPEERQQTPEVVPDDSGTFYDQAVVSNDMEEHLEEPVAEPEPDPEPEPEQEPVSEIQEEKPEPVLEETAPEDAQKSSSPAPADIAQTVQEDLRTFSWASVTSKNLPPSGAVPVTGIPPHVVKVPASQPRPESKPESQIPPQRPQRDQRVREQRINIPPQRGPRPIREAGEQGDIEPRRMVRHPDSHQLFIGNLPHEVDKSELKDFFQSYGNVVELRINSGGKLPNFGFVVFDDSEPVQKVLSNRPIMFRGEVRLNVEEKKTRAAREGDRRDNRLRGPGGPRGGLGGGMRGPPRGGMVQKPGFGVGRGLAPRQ
UniProt O00425: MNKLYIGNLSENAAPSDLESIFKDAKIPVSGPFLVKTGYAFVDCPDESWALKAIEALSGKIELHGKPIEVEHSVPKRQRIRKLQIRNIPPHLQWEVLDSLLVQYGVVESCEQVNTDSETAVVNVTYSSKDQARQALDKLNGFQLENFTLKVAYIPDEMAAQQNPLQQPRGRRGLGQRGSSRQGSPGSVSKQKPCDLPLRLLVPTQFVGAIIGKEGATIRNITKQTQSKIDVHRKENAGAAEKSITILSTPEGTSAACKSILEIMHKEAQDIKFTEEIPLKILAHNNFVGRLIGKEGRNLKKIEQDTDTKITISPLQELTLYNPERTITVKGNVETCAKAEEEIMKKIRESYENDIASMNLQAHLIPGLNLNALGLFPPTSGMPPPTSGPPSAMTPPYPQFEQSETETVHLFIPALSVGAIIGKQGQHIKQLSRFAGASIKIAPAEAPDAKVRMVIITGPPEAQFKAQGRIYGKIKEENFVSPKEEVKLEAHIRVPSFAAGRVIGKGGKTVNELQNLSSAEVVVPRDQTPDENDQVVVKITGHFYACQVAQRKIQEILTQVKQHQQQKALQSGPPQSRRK
UniProt Q9NRX1: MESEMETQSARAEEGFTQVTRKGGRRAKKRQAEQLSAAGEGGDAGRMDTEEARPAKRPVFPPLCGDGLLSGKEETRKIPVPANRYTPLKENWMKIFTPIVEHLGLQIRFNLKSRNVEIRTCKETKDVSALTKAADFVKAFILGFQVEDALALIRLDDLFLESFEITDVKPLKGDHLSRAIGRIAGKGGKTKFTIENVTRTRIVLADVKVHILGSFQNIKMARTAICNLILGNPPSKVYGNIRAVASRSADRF

Like-named read-outs stand apart in the source and are kept apart here. These are yes or no findings as the source states them, for the method shown. In cells and extracts the contact can be indirect. Here binding means that the protein was enriched with, or labelled near, the bait; the list need not be complete.

ATXN2 (from UniProt Q99700 1-1313): in experiment [1], the binding result was “binds”.
Regarding G3BP1 (from UniProt Q13283 1-466), the binding entry in experiment [2] and in experiment [1] was “binds” in each case.
With “IMP3 (IGF2BP3), endogenous (from UniProt O00425 1-579)”, the binding entry in experiment [2] and in experiment [1] was “binds” each time.
On to PNO1 (from UniProt Q9NRX1 1-252), for which the binding entry in experiment [2] and in experiment [1] was “binds” throughout.

B1: TSR1 (protein, UniProt Q2NL82 1-804)
chain: MAAHRPGPLKQQNKAHKGGRHRGRGSAQRDGKGRLALKTLSKKVRKELSRVDQRHRASQLRKQKKEAVLAEKRQLGGKDGPPHQVLVVPLHSRISLPEAMQLLQDRDTGTVHLNELGNTQNFMLLCPRLKHRWFFTSARPGDLHVVLDMAKVADTILFLLDPLEGWDSTGDYCLSCLFAQGLPTYTLAVQGISGLPLKKQIDTRKKLSKAVEKRFPHDKLLLLDTQQEAGMLLRQLANQKQQHLAFRDRRAYLFAHAVDFVPSEENNLVGTLKISGYVRGQTLNVNRLLHIVGYGDFQMKQIDAPGDPFPLNPRGIKPQKDPDMAMEICATDAVDDMEEGLKVLMKADPGRQESLQAEVIPDPMEGEQTWPTEEELSEAKDFLKESSKVVKKVPKGTSSYQAEWILDGGSQSGGEGDEYEYDDMEHEDFMEEESQDESSEEEEEYETMTIGESVHDDLYDKKVDEEAEAKMLEKYKQERLEEMFPDEVDTPRDVAARIRFQKYRGLKSFRTSPWDPKENLPQDYARIFQFQNFTNTRKSIFKEVEEKEVEGAEVGWYVTLHVSEVPVSVVECFRQGTPLIAFSLLPHEQKMSVLNMVVRRDPGNTEPVKAKEELIFHCGFRRFRASPLFSQHTAADKHKLQRFLTADMALVATVYAPITFPPASVLLFKQKSNGMHSLIATGHLMSVDPDRMVIKRVVLSGHPFKIFTKMAVVRYMFFNREDVLWFKPVELRTKWGRRGHIKEPLGTHGHMKCSFDGKLKSQDTVLMNLYKRVFPKWTYDPYVPEPVPWLKSEISSTVPQGGME
Turning to B1, in experiment [3], the binding entry was “binds”.

B2: NOB1 (protein, UniProt Q9ULX3 1-412)
chain: MAPVEHVVADAGAFLRHAALQDIGKNIYTIREVVTEIRDKATRRRLAVLPYELRFKEPLPEYVRLVTEFSKKTGDYPSLSATDIQVLALTYQLEAEFVGVSHLKQEPQKVKVSSSIQHPETPLHISGFHLPYKPKPPQETEKGHSACEPENLEFSSFMFWRNPLPNIDHELQELLIDRGEDVPSEEEEEEENGFEDRKDDSDDDGGGWITPSNIKQIQQELEQCDVPEDVRVGCLTTDFAMQNVLLQMGLHVLAVNGMLIREARSYILRCHGCFKTTSDMSRVFCSHCGNKTLKKVSVTVSDDGTLHMHFSRNPKVLNPRGLRYSLPTPKGGKYAINPHLTEDQRFPQLRLSQKARQKTNVFAPDYIAGVSPFVENDISSRSATLQVRDSTLGAGRRRLNPNASRKKFVKKR
Consider B2, for which the binding result in experiment [4] and in experiment [3] was “binds” each time.

B3: ILF3 (protein, UniProt Q12906 1-894)
chain: MRPMRIFVNDDRHVMAKHSSVYPTQEELEAVQNMVSHTERALKAVSDWIDEQEKGSSEQAESDNMDVPPEDDSKEGAGEQKTEHMTRTLRGVMRVGLVAKGLLLKGDLDLELVLLCKEKPTTALLDKVADNLAIQLAAVTEDKYEILQSVDDAAIVIKNTKEPPLSLTIHLTSPVVREEMEKVLAGETLSVNDPPDVLDRQKCLAALASLRHAKWFQARANGLKSCVIVIRVLRDLCTRVPTWGPLRGWPLELLCEKSIGTANRPMGAGEALRRVLECLASGIVMPDGSGIYDPCEKEATDAIGHLDRQQREDITQSAQHALRLAAFGQLHKVLGMDPLPSKMPKKPKNENPVDYTVQIPPSTTYAITPMKRPMEEDGEEKSPSKKKKKIQKKEEKAEPPQAMNALMRLNQLKPGLQYKLVSQTGPVHAPIFTMSVEVDGNSFEASGPSKKTAKLHVAVKVLQDMGLPTGAEGRDSSKGEDSAEETEAKPAVVAPAPVVEAVSTPSAAFPSDATAEQGPILTKHGKNPVMELNEKRRGLKYELISETGGSHDKRFVMEVEVDGQKFQGAGSNKKVAKAYAALAALEKLFPDTPLALDANKKKRAPVPVRGGPKFAAKPHNPGFGMGGPMHNEVPPPPNLRGRGRGGSIRGRGRGRGFGGANHGGYMNAGAGYGSYGYGGNSATAGYSQFYSNGGHSGNASGGGGGGGGGSSGYGSYYQGDNYNSPVPPKHAGKKQPHGGQQKPSYGSGYQSHQGQQQSYNQSPYSNYGPPQGKQKGYNHGQGSYSYSNSYNSPGGGGGSDYNYESKFNYSGSGGRSGGNSYGSGGASYNPGSHGGYGGGSGGGSSYQGKQGGYSQSNYNSPGSGQNYSGPPSSYQSSQGGYGRNADHSMNYQYR
Turning to B3, the binding result in experiment [4] and in experiment [3] was “binds” in each case.

B4: ATXN2L (protein, UniProt Q8WWM7 1-1075)
chain: MLKPQPLQQPSQPQQPPPTQQAVARRPPGGTSPPNGGLPGPLATSAAPPGPPAAASPCLGPVAAAGSGLRRGAEGILAPQPPPPQQHQERPGAAAIGSARGQSTGKGPPQSPVFEGVYNNSRMLHFLTAVVGSTCDVKVKNGTTYEGIFKTLSSKFELAVDAVHRKASEPAGGPRREDIVDTMVFKPSDVMLVHFRNVDFNYATKDKFTDSAIAMNSKVNGEHKEKVLQRWEGGDSNSDDYDLESDMSNGWDPNEMFKFNEENYGVKTTYDSSLSSYTVPLEKDNSEEFRQRELRAAQLAREIESSPQYRLRIAMENDDGRTEEEKHSAVQRQGSGRESPSLASREGKYIPLPQRVREGPRGGVRCSSSRGGRPGLSSLPPRGPHHLDNSSPGPGSEARGINGGPSRMSPKAQRPLRGAKTLSSPSNRPSGETSVPPPPAVGRMYPPRSPKSAAPAPISASCPEPPIGSAVPTSSASIPVTSSVSDPGVGSISPASPKISLAPTDVKELSTKEPGRTLEPQELARIAGKVPGLQNEQKRFQLEELRKFGAQFKLQPSSSPENSLDPFPPRILKEEPKGKEKEVDGLLTSEPMGSPVSSKTESVSDKEDKPPLAPSGGTEGPEQPPPPCPSQTGSPPVGLIKGEDKDEGPVAEQVKKSTLNPNAKEFNPTKPLLSVNKSTSTPTSPGPRTHSTPSIPVLTAGQSGLYSPQYISYIPQIHMGPAVQAPQMYPYPVSNSVPGQQGKYRGAKGSLPPQRSDQHQPASAPPMMQAAAAAGPPLVAATPYSSYIPYNPQQFPGQPAMMQPMAHYPSQPVFAPMLQSNPRMLTSGSHPQAIVSSSTPQYPSAEQPTPQALYATVHQSYPHHATQLHAHQPQPATTPTGSQPQSQHAAPSPVQHQAGQAPHLGSGQPQQNLYHPGALTGTPPSLPPGPSAQSPQSSFPQPAAVYAIHHQQLPHGFTNMAHVTQAHVQTGITAAPPPHPGAPHPPQVMLLHPPQSHGGPPQGAVPQSGVPALSASTPSPYPYIGHPQGEQPGQAPGFPGGADDRIREFSLAGGIWHGRAEGLQVGQDARVLGGE
In the case of B4, the binding entry in experiment [4] and in experiment [3] was “binds” throughout.

These data come from paper doi:10.1101/2020.12.07.413385.
